# These are yes or no findings as the source states them, for the method shown. In cells and extracts the contact can be indirect. Some entries that bind do so weakly or less than the wild type. Where a sequence is shown, tags or fusion partners need not be part of it.
# T1: M. mazei MtrA^Δ219-240 with N-terminal Strep-tag (Methanosarcina mazei) (UniProt O59640)
# T1 sequence: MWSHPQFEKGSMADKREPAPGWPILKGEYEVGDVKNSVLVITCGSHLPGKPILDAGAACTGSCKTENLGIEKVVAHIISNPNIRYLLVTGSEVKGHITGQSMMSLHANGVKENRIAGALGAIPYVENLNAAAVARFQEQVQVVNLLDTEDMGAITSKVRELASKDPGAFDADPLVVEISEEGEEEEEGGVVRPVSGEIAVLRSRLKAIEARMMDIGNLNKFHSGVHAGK
# T2: methyltransferase A (MtrA) of M. mazei, endogenous protein of the whole cell extract (Methanosarcina mazei) (UniProt O59640)
# T2 sequence: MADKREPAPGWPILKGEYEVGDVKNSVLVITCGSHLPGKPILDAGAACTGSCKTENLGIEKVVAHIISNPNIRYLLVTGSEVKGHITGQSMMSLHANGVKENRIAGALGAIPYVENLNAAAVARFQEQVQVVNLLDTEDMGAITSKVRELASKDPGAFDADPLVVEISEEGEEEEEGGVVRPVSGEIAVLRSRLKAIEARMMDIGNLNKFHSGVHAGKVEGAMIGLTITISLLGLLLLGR
# B1: M. mazei Adriase with C-terminal His-tag (enzyme)
# chain: TLVIAFIGKNGAVMAGDMREITFEGEKPDREKLEKELYSGSIVTDEEMQKKAEEFGVKITVADCKEKVSERNGVLVGEVSSAEGGVVKKRRLYASAGNFAIAELINTEMTLTSQGKGSNFIAFGNEFTKQVANKCFKDNWTKKSNLQDAVKILILCMETVARKTASVSKQFMIVQTASNADVLKVVEKDRNCGSHHHHHH
# B2: M. mazei Adriase with C-terminal Strep-tag (enzyme)
# chain: TLVIAFIGKNGAVMAGDMREITFEGEKPDREKLEKELYSGSIVTDEEMQKKAEEFGVKITVADCKEKVSERNGVLVGEVSSAEGGVVKKRRLYASAGNFAIAELINTEMTLTSQGKGSNFIAFGNEFTKQVANKCFKDNWTKKSNLQDAVKILILCMETVARKTASVSKQFMIVQTASNADVLKVVEKDRNCGSWSHPQFEK
# B3: M. mazei Adriase with C-terminal Myc-tag (enzyme)
# chain: TLVIAFIGKNGAVMAGDMREITFEGEKPDREKLEKELYSGSIVTDEEMQKKAEEFGVKITVADCKEKVSERNGVLVGEVSSAEGGVVKKRRLYASAGNFAIAELINTEMTLTSQGKGSNFIAFGNEFTKQVANKCFKDNWTKKSNLQDAVKILILCMETVARKTASVSKQFMIVQTASNADVLKVVEKDRNCGSEQKLISEEDL
# B4: M. mazei Adriase with C-terminal HA-tag (enzyme)
# chain: TLVIAFIGKNGAVMAGDMREITFEGEKPDREKLEKELYSGSIVTDEEMQKKAEEFGVKITVADCKEKVSERNGVLVGEVSSAEGGVVKKRRLYASAGNFAIAELINTEMTLTSQGKGSNFIAFGNEFTKQVANKCFKDNWTKKSNLQDAVKILILCMETVARKTASVSKQFMIVQTASNADVLKVVEKDRNCGSYPYDVPDYA
# Key:
# [1] = target: T1, M. mazei MtrA^Δ219-240 with N-terminal Strep-tag (Methanosarcina mazei); test: Ni-NTA bead pulldown, SDS-PAGE; LC-MS of the reaction
# [2] = target: T1, M. mazei MtrA^Δ219-240 with N-terminal Strep-tag (Methanosarcina mazei); test: Ni-NTA bead pulldown with purified proteins, SDS-PAGE
# [3] = target: T1, M. mazei MtrA^Δ219-240 with N-terminal Strep-tag (Methanosarcina mazei); test: LC-MS of Adriase incubated with MtrA over night at 4° C.
# [4] = target: T1, M. mazei MtrA^Δ219-240 with N-terminal Strep-tag (Methanosarcina mazei); test: isotopic dimethyl labelling and LC-MS/MS of excised gel bands
# [5] = target: T1, M. mazei MtrA^Δ219-240 with N-terminal Strep-tag (Methanosarcina mazei); test: pulldown on Ni-NTA beads with His6-tagged Adriase, SDS-PAGE of flow-through (FT), washes (W1-W4) and eluate (Elu)
# [6] = target: T1, M. mazei MtrA^Δ219-240 with N-terminal Strep-tag (Methanosarcina mazei); test: LC-MS of the mixture, deconvoluted masses; MtrA^N-Adriase is the covalent conjugate, MtrA-Adriase the non-covalent complex
# [7] = target: T2, methyltransferase A (MtrA) of M. mazei, endogenous protein of the whole cell extract (Methanosarcina mazei); test: pulldown from M. mazei whole cell extract, LC-MS/MS (Experiment 2.1)
# [8] = target: T2, methyltransferase A (MtrA) of M. mazei, endogenous protein of the whole cell extract (Methanosarcina mazei); test: pulldown from M. mazei whole cell extract, LC-MS/MS (Experiment 2.2)
# [9] = target: T2, methyltransferase A (MtrA) of M. mazei, endogenous protein of the whole cell extract (Methanosarcina mazei); test: pulldown from M. mazei whole cell extract, LC-MS/MS (Experiment 2.3)
binder,measurement,setting,value
B1,binding,[1],binds
same,binding,[2],binds
same,binding,[3],binds
same,binding,[4],binds
same,binding,[5],binds
same,binding,[6],binds
B2,binding,[7],binds
B3,binding,[8],binds
B4,binding,[9],binds

# From patent publication US20260275319A1, “ARCHAEAL PEPTIDE RECOMBINASE – A NOVEL PEPTIDE LIGATING ENZYME” (MAX-PLANCK-GESELLSCHAFT ZUR FÖRDERUNG DER WISSENSCHAFTEN …, priority 2019, published 2026)
